No constants are given. Whether binding was seen depends on the method and setting. In cells and extracts the contact can be indirect. Some entries that bind do so weakly or less than the wild type.
Molecular target: T1, Ethylmalonic encephalopathy protein 1 (mouse (endogenous in liver tissue)) (UniProt Q9DCM0)
T1 sequence: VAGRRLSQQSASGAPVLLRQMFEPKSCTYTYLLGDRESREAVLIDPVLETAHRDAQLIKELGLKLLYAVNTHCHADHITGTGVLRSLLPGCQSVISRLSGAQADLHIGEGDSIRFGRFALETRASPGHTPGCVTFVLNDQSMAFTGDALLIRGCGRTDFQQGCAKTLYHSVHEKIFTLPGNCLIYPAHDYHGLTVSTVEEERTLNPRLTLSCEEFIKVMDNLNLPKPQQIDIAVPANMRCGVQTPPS
Experiment: co-IP; anti-ETHE1 antibody (B-12, 10 µg) on Pierce protein A/G agarose spin column; pre-treated protein lysates incubated overnight at 4 °C; western blot for Ethe1, ETFDH and Keap1; control, DHEA and DHEA+Met groups

B1: Electron transfer flavoprotein dehydrogenase (protein, UniProt Q921G7 33-616)
chain: SSTSAVPQITTHYTVHPREKDKRWEGVNMERFAEEADVVIVGAGPAGLSAAIRLKQLAAEQGKDIRVCLVEKAAQIGAHTLSGACLDPAAFKELFPDWKEKGAPLNTPVTEDRFAILTEKHRIPVPILPGLPMNNHGNYIVRLGHLVSWMGEQAEALGVEVYPGYAAAEVLYHEDGSVKGIATNDVGIQKDGAPKTTFERGLELHAKVTVFAEGCHGHLAKQLYKKFDLRASCDAQTYGIGLKELWIIDEKKWKPGRVDHTVGWPLDRHTYGGSFLYHLNEGEPLVAVGFVVGLDYQNPYLSPFREFQRWKHHPSIQPTLEGGKRIAYGARALNEGGLQSIPKLTFPGGLLIGCSPGFMNVPKIKGTHTAMKSGSLAAESIFKQLTSENLQSKTTGLHVTEYEDNLKQSWVWKELHAVRNIRPSCHGILGVYGGMIYTGIFYWILRGMEPWTLKHKGSDSDQLKPAKDCTPIEYPKPDGQISFDLLSSVALSGTNHEHDQPAHLTLKDDSIPVNRNLSIYDGPEQRFCPAGVYEFVPLEQGDGFRLQINAQNCVHCKTCDIKDPSQNINWVVPEGGGGPAYNGM
Question: Which binding does the source give for B1 here?
Answer: The binding was “binds”.
